PubChem BioAssay AID624297 (National Center for Advancing Translational Sciences (NCATS), 2012)
About 6,200 (1.8%) of roughly 340,000 compounds were called active. The inconclusive results got no clear call from the source; some entries with a clear call stand among them for comparison. The call rests on the fitted dose curve; in most records, active means well fitted activation curve with a large enough effect; inconclusive means small, poorly fitted or top-dose-only effect; inactive means no such curve, though single readings can be large or run the other way. Potencies beside an inconclusive call are fits to weak or partial responses and may not hold up.

assay: A quantitative high throughput screen for small molecules that induce DNA re-replication in SW480 colon adenocarcinoma cells.; further: nearly all actives have a fitted effect of over 55% in size; conditions: Hoechst DNA content imaging, 48 h; series mostly up to 46.1 µM
Summary of the method: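 Quantitative HTS format with DMSO vehicle controls; 48 hr drug incubation at 37 C, then 40 min Hoechst staining and scanning imager measurement at 405 nm excitation.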
Potency means the concentration at half of the fitted maximal effect.

For `O=C(CN1CCOCC1)NCc1cc([N+](=O)[O-])ccc1O`, which Potency is on record?
The Potency was inconclusive: 14.6 µM [activator, single point].

For `O=C(O)Cc1sc(-c2ccccc2Cl)nc1-c1ccccc1`, which Potency is on record?
Its Potency is “inactive”.

With `CCOC(=O)c1nn(-c2ccccc2C)c(=O)c2c(N)scc12` as the molecule, how does the Potency read?
Its Potency is “inactive”.

Which Potency does the source give for `CC1CN(C(=O)c2ccn(C)n2)CC(C)O1` (stereo unspecified) here?
The Potency was “inactive”.

For `Cc1ccc(CNC(=O)[C@H](C)NC(=O)C2CCN(C(=O)[C@@H]3CCCN3C(=O)OC(C)(C)C)CC2)cc1`, which Potency is on record?
The Potency was “inactive”.

With `COc1ccc(/C=C(\NC(=O)c2ccc(OCC(C)C)cc2)C(=O)OCc2ccco2)cc1` as the molecule, how does the Potency read?
The Potency was inconclusive: 0.651 µM [activator, partial curve, poor fit].

Which Potency does the source give for `COc1ccc(CN(C)C(=O)COC(=O)c2ccc(-c3ccccc3)cc2)c(OC)c1OC` here?
The Potency was “inactive”.

With `Cc1nn(-c2ccccc2)c(Cl)c1C(=O)NNC(=O)c1ccccc1O` as the molecule, how does the Potency read?
Its Potency is inconclusive: 20.6 µM [activator, single point].

With `Cc1ccc([N+](=O)[O-])cc1S(=O)(=O)Nc1cccc(S(=O)(=O)Nc2ccccc2C(=O)O)c1` as the molecule, how does the Potency read?
The Potency was “inactive”.

With `Cc1cnc(NC(=O)CN2CCN(c3ccccn3)CC2)s1` as the molecule, how does the Potency read?
Its Potency is inconclusive: 29.1 µM [activator, single point].

With `COc1ccc2[nH]c3c(c2c1)CCN1C(=O)C(CC(=O)NCCC2=CCCCC2)C[C@H](C(=O)N2CCCCC2)[C@@]31CCc1ccccc1` (stereo partly specified) as the molecule, how does the Potency read?
Its Potency is “inactive”.

For `COc1ccc(CCN2CC(C(=O)N(C)CC(=O)Nc3cccc(F)c3)CC2=O)cc1OC` (stereo unspecified), which Potency is on record?
The Potency was inconclusive: 6.51 µM [activator, single point].

Which Potency does the source give for `CC(C)C1COC(c2cccc3ccccc23)=N1` (stereo unspecified) here?
The Potency was inconclusive: 6.51 µM [activator, single point].

Which Potency does the source give for `N#CCCn1cc(/C=C2\NC(=S)N(c3ccccc3)C2=O)c(-c2ccc(-c3ccccc3)cc2)n1` here?
Its Potency is inconclusive: 6.51 µM [activator, single point].

With `COCCn1c(CN2CCc3ccccc3C2)nc2c1c(=O)n(C)c(=O)n2C` as the molecule, how does the Potency read?
The Potency was “inactive”.

With `CC(=O)N1CCN(C(=O)c2cc3ccccc3o2)CC1` as the molecule, how does the Potency read?
Its Potency is “inactive”.

With `CCOc1ccccc1NC(=O)Cn1nnc(C(=O)NCc2ccco2)c1N` as the molecule, how does the Potency read?
The Potency was inconclusive: 0.112 µM [activator, full curve, poor fit].

With `CC(NC(=O)c1ccc2c(c1)OCO2)C(c1cccs1)N1CCN(c2ccccc2)CC1` (stereo unspecified) as the molecule, how does the Potency read?
The Potency was inconclusive: 4.11 µM [activator, full curve, poor fit].

With `COc1cc(OC)c(OC)cc1CNC(=O)c1cc(S(=O)(=O)N2CCOCC2)ccc1F` as the molecule, how does the Potency read?
Its Potency is inconclusive: 0.0046 µM [activator, full curve, poor fit].

With `COc1ccc(C2CC(c3ccccc3)=NN2C(=O)COC(=O)c2cccc(O)c2)cc1` (stereo unspecified) as the molecule, how does the Potency read?
Its Potency is inconclusive: 16.4 µM [activator, single point].

With `O=C(NC(=S)Nc1cccc(NC(=O)c2ccc(Cl)cc2Cl)c1)c1cccs1` as the molecule, how does the Potency read?
The Potency was “inactive”.

For `Cc1cc(C)cc(NC(=O)CSCc2cnn(-c3ccccc3)c2-n2cccc2)c1`, which Potency is on record?
The Potency was inconclusive: 20.6 µM [activator, single point].

With `O=C(/C=C/c1cccc(F)c1)NNC(=O)c1ccncc1` as the molecule, how does the Potency read?
The Potency was “inactive”.

Which Potency does the source give for `NS(=O)(=O)c1ccc(CCNC(=O)c2ccc(Cl)s2)cc1` here?
The Potency was inconclusive: 29.1 µM [activator, single point].

With `CC(C)(C)NC(=O)C(c1ccc(F)cc1)N(Cc1ccco1)C(=O)c1csnn1` (stereo unspecified) as the molecule, how does the Potency read?
The Potency was “inactive”.

Which Potency does the source give for `CCN(CC(=O)Nc1c(F)cccc1F)C(=O)C1CC(=O)N(CCc2ccccc2)C1` (stereo unspecified) here?
Its Potency is “inactive”.

Which Potency does the source give for `COc1ccccc1/C=C/C(=O)Nc1cccc(S(=O)(=O)NC2=NCCCCC2)c1` here?
The Potency was inconclusive: 9.2 µM [activator, partial curve, poor fit].

Which Potency does the source give for `Cc1ccc(S(=O)(=O)N2CCOCC2)cc1NC(=O)COc1ccc(C(=O)c2ccccc2)cc1` here?
Its Potency is “inactive”.

With `CC(=O)Nc1cccc(C(=O)OC(C)C(=O)NCc2ccc3c(c2)OCO3)c1` (stereo unspecified) as the molecule, how does the Potency read?
The Potency was “inactive”.

With `O=C(O)c1ccc(OS(=O)(=O)c2ccc(Cl)s2)cc1` as the molecule, how does the Potency read?
Its Potency is inconclusive: 29.1 µM [activator, single point].

Which Potency does the source give for `Cc1nnc(SC(C)C(=O)Nc2ccc(N3CCOCC3)cc2)n1Cc1ccccc1` (stereo unspecified) here?
The Potency was inconclusive: 2.06 µM [activator, single point].

Which Potency does the source give for `Cc1occc1C(=O)Nc1cccc([N+](=O)[O-])c1` here?
The Potency was inconclusive: 29.1 µM [activator, single point].

Which Potency does the source give for `COc1cc(Nc2nc3ccccc3n3nnnc23)cc(OC)c1OC` here?
Its Potency is “inactive”.

With `COc1ccc(-c2nn(-c3ccccc3)cc2C(=O)N/N=C/c2ccc([N+](=O)[O-])o2)cc1` as the molecule, how does the Potency read?
Its Potency is inconclusive: 6.51 µM [activator, single point].

With `Cc1cc(NC(=O)CSc2nc(-c3cccnc3)ccc2C#N)no1` as the molecule, how does the Potency read?
The Potency was inconclusive: 0.13 µM [activator, partial curve, poor fit].

Which Potency does the source give for `CCCCCc1ccc(OCCCC[n+]2ccccc2)c(CCCCC)c1` here?
Its Potency is inconclusive: 29.1 µM [activator, single point].

For `Cc1ccc(NC(=O)C2=NNC(=O)CC2)cc1F`, which Potency is on record?
The Potency was inconclusive: 29.1 µM [activator, single point].

With `CN1CCN(NC(=O)c2cc(-c3cccc(Cl)c3)nc3ccccc23)CC1` as the molecule, how does the Potency read?
The Potency was “inactive”.

With `O=C(CC(O)c1ccncc1)c1ccccc1O` (stereo unspecified) as the molecule, how does the Potency read?
Its Potency is inconclusive: 25.9 µM [activator, single point].

Which Potency does the source give for `CCOc1ccc(N(CC(=O)NC2CC2)S(=O)(=O)c2ccc(C)cc2)cc1` here?
Its Potency is “inactive”.

Which Potency does the source give for `COc1cc(C(Nc2ccccn2)c2ccc3ccc(C)nc3c2O)cc(OC)c1O` (stereo unspecified) here?
Its Potency is active: 20.6 µM.

For `CCOC(=O)C1CCCN(C(=O)CNC(=O)c2ccc(Br)o2)C1` (stereo unspecified), which Potency is on record?
Its Potency is inconclusive: 18.4 µM [activator, single point].

For `CS(=O)(=O)N(CC(=O)Nc1ccccc1C(=O)NCc1ccco1)c1ccc2c(c1)OCCO2`, which Potency is on record?
Its Potency is inconclusive: 29.1 µM [activator, single point].

For `CCC(NC(=O)c1ccncc1)c1ccccc1` (stereo unspecified), which Potency is on record?
Its Potency is inconclusive: 16.4 µM [activator, partial curve, poor fit].

For `O=C(/C=C/c1cccc(O)c1)c1cccnc1`, which Potency is on record?
Its Potency is inconclusive: 18.4 µM [activator, single point].

Which Potency does the source give for `CC(=O)N1CCc2c(sc(NC(=O)CCS(=O)(=O)c3ccccc3)c2C(N)=O)C1` here?
The Potency was active: 20.6 µM.

With `CN1CCc2c1nc1ccccc1c2N=C1CCCN1Cc1ccccc1` as the molecule, how does the Potency read?
The Potency was inconclusive: 10.3 µM [activator, partial curve, poor fit].

For `C=CCC[C@H](Cc1ccc(F)cc1)C(=O)OC[C@H](Cc1c[nH]c2ccccc12)NC(=O)[C@@H](CC=C)CC(=O)N(CCO)Cc1ccccc1`, which Potency is on record?
Its Potency is inconclusive: 29.1 µM [activator, single point].

With `Cc1ccc(SC(c2ccc(C)cc2)C(Cn2cncn2)C(=O)c2ccccc2)cc1` (stereo unspecified) as the molecule, how does the Potency read?
Its Potency is inconclusive: 23.1 µM [activator, single point].

With `COc1ccccc1NC(=O)c1ccc(NC(=O)c2ccc(=O)[nH]c2)cc1` as the molecule, how does the Potency read?
Its Potency is inconclusive: 1.3 µM [activator, partial curve, poor fit].

Which Potency does the source give for `Cc1ccc(S(=O)(=O)c2nc(S(C)(=O)=O)sc2N2CCOCC2)cc1` here?
Its Potency is inconclusive: 4.61 µM [activator, single point].

Which Potency does the source give for `c1ccc(CN2CCC(Nc3nc(-c4ccccc4)nc4ccccc34)CC2)cc1` here?
The Potency was inconclusive: 29.1 µM [activator, single point].

For `CCOc1ccc(-c2c(C(=O)N/N=C/c3cccc(Br)c3)nnn2-c2nonc2N)cc1`, which Potency is on record?
Its Potency is inconclusive: 4.61 µM [activator, partial curve, poor fit].

With `O=C(CCSc1ccccc1)Nc1ccccc1Br` as the molecule, how does the Potency read?
The Potency was inconclusive: 31.6 µM [activator, single point].

With `O=C1CCC[C@@H]2C[C@@]3(C[C@@H]4CCN1[C@H]24)Nc1cc([N+](=O)[O-])ccc1NC3=NC1CCCCC1` as the molecule, how does the Potency read?
The Potency was inconclusive: 18.4 µM [activator, single point].

Which Potency does the source give for `COC(=O)c1c(NC(=O)/C=C/C(=O)O)sc(Cc2ccccc2)c1C` here?
Its Potency is inconclusive: 29.1 µM [activator, single point].

With `C=C(C)C(COc1c2occc2cc2ccc(=O)oc12)OC(C)(C)C(O)COc1c2occc2cc2ccc(=O)oc12` (stereo unspecified) as the molecule, how does the Potency read?
Its Potency is inconclusive: 0.58 µM [activator, full curve, poor fit].

Which Potency does the source give for `COc1ccc(Br)cc1C(=O)CCC(=O)OCC(=O)Nc1cc(C(N)=O)cc(C(N)=O)c1` here?
Its Potency is inconclusive: 29.1 µM [activator, partial curve, poor fit].

With `CC1CCCCC1NC(=O)Cn1cnc2sccc2c1=O` (stereo unspecified) as the molecule, how does the Potency read?
Its Potency is “inactive”.

For `CC(C)Sc1nc(N2CCOCC2)c2c(c1C#N)CC(C)(C)SC2`, which Potency is on record?
The Potency was “inactive”.

For `O=C(CSC(=S)N1CCOCC1)Nc1ccc(S(=O)(=O)Nc2ncccn2)cc1`, which Potency is on record?
The Potency was inconclusive: 6.51 µM [activator, single point].

With `CCCCN1C2=C(C(=O)CC(C)(C)C2)C(c2ccccc2)C2=C1c1ccccc1C2=O` (stereo unspecified) as the molecule, how does the Potency read?
Its Potency is “inactive”.

Which Potency does the source give for `O=c1[nH][nH]cc1C=Nc1ccc(Cl)cc1` here?
Its Potency is inconclusive: 3.66 µM [activator, single point].

For `CCCC(CCC)=NNc1ccc(S(=O)(=O)Nc2ccccc2OC)cc1[N+](=O)[O-]`, which Potency is on record?
The Potency was “inactive”.

Which Potency does the source give for `C#CCOCCOCCOCCNc1nc(N2CCN(C(=O)Cn3cc(CC(C)O)nn3)CC2)nc(N2CCN(C(=O)[C@H](CCCCN)n3cc(CC(C)O)nn3)CC2)n1` (stereo partly specified) here?
The Potency was inconclusive: 6.51 µM [activator, single point].

With `CCn1c(SCC(=O)NCC2CCCO2)nnc1-c1ccccc1OC` (stereo unspecified) as the molecule, how does the Potency read?
The Potency was inconclusive: 29.1 µM [activator, single point].
